At least one compound was matched to its structure with a doubt left.
What was measured:
S. epidermidis biofilm = test: Inactivation of biofilm embedded bacteria using liquid buffer formulation (Method 1), S. epidermidis; type: cell-based, Staphylococcus epidermidis; settings: antimicrobial plus DspB vs antimicrobial alone, P<0.05
Procedure: (§1) Method 1: Method to Test Inactivation of Biofilm Embedded Bacteria Using Liquid Buffer Formulation
(§2) S. epidermidis or E. coli biofilm were each grown in 96-well plate and washed three times to remove planktonic cells. Then biofilm was treated using 50 mM phosphate or citrate buffer, (no treatment control), buffer solutions containing DspB at 10-200 μg/ml, buffer solution containing antimicrobial alone, and buffer solution DspB plus antimicrobial for varying exposure times (10 min-3 h). After treatments, biofilm embedded bacteria was dispersed, diluted serially and plated on Tryptic soy agar plates. Data was analyzed using ANOVA and Tukey's test.

E. coli biofilm = test: Inactivation of biofilm embedded bacteria using liquid buffer formulation (Method 1), E. coli; type: cell-based, Escherichia coli; settings: antimicrobial plus DspB vs antimicrobial alone, P<0.05
Procedure: as §1, §2

DspB = test: Compatibility between antimicrobials or antibiotics and DspB in gel, enzymatic assay (Method 6); type: biochemical, Aggregatibacter actinomycetemcomitans
Procedure: Method 6: Method to Test Compatibility Between Antimicrobials or Antibiotics and DspB in Gel Using Enzymatic Assay
DspB gel containing 200 μg/ml DspB, 16% […] (PF127), 50 mM Phosphate buffer or citrate, 100 mM NaCl, pH 5.9, and 2× concentrated antimicrobial agent/antibiotics in 16% Poloxamer 405, 50 mM Phosphate buffer, 100 mM NaCl, pH 5.9 were mixed in equal proportions. 4×5 μL aliquots were withdrawn at 0, 5, 10, 20, 30, 60, and 120 min for measurement of DspB enzymatic activity. DspB enzymatic activity was measured using β-N-acetylglucosaminidase assay kit from Sigma (product code CS0780) in 96-well microtiter plate following the manufacturer's instructions. The plate was incubated for 30 minutes before terminating the reaction. Data analysis was done in Excel. Student T test (paired) was performed for each time point separately using DspB activity in mixture and in control sample as two set of variables. […]

Cc1cc(O)cc(C)c1Cl [Chloroxylenol]
Effect of DspB on activity of the antimicrobial against biofilm embedded S. epidermidis (S. epidermidis biofilm): enhanced | Effect of DspB on activity of the antimicrobial against biofilm embedded E. coli (E. coli biofilm): enhanced | Synergy or compatibility with DspB, E: enzymatic (DspB; gel formulation, 100 μg/ml DspB): E: synergy | Enzymatic activity of DspB in the presence of the antimicrobial compared with DspB control (DspB; wound gel, P≤0.05, carvacrol and cinnamaldehyde at 0-30 min, chloroxylenol at 5, 10, 20 and 60 min): Higher enzymatic activity

Source: patent US20250387458A1, “COACTIVE COMBINATIONS OF ANTIMICROBIALS WITH DISPERSINB” (KANE BIOTECH INC., priority 2020, published 2025)
